Data from patent publication US10753892B2, “Non-invasive sensing of free metal ions using ion chemical exchange saturation transfer” (The Johns Hopkins University, priority 2013, dated 2020).

Assay: 19F-iCEST MRI of 5F-BAPTA with Ca2+ (16.4 T, 37° C.), Bloch simulations
Assay type: binding
Method: 5F-BAPTA was dissolved in Hepes buffer (40 mM) to a final concentration of 10 mM and the pH was adjusted to the following values: 5.6, 6.0, 6.4, 6.8, 7.0, 7.2, and 7.6. Stock 10 mM solutions of CaCl2, MgCl2, and ZnCl2 were prepared in 40 mM Hepes buffer. Five μL of the stock solution was added to 1 mL of 10 mM 5F-BAPTA resulting in a 200:1 ratio (10 mM: 50 μM) between the free 5F-BAPTA and the M^2+ ion following by a pH adjustment. One mL of each sample (with adjusted pH) was transferred into a 8 mm NMR tube within a 25 mm NMR tube in order to center the sample in the coil for the MRI experiments.
MRI experiments were performed on a vertical 16.4 T scanner (Bruker Avance system) at 37° C. A 25 mm birdcage radiofrequency coil was used to acquire both ^1H and ^19F MR images by sweeping the coil frequency from proton (700 MHz) to fluorine (658.8 MHz) frequency.
The saturation transfer effect on the free 5F-BAPTA, i.e., the MTR or iCEST, was calculated for each voxel in the image by using a Lorentzian line shape fitting as described in Jones et al. (Magn Reson Med 2012, 67, 1579), and Liu et al. (Molecular imaging 2012, 11, 47).
Numerical solutions to the six Bloch equations including direct saturation of free 5F-BAPTA were obtained as described previously (McMahon, M. T. et al., Magnetic Resonance in Medicine 2006, 55, 836). The relaxation parameters for ^19F used in the Bloch equations were R1=1/T1 with bound calcium (Rib)=0.71 s^−1, R2 bound calcium (R2b)=29 s^−1, whereas the R1 and R2 values of free 5F-BAPTA (R1f and R2f) were determined experimentally through inversion-recovery and saturation-recovery experiments as a function of pH on solutions containing 20 mM 5F-BAPTA as listed in Table 1 as follows:
Saturation time (tsat) was either 1500 ms to 2000 ms as indicated in the text.
An aqueous solution containing 0.5 mM of 5F-BAPTA and 500 nM in Hepes buffer (40 mM, pH=7.2) was transferred into a 20 mm NMR tube, which was located within a 25 mm NMR tube in order to centralize the sample in the coil for the MRI experiment. The same parameters used for ^19F-iCEST experiments were used except the followings: TR=3000 ms, RARE=8, FOV=6.0 cm (resolution=1.875×1.875 mm), and 168 averages.

O=C(O)CN(CC(=O)O)c1ccc(F)cc1OCCOc1cc(F)ccc1N(CC(=O)O)CC(=O)O [5F-BAPTA, 2,2′,2″,2′″-(2,2′-(Ethane-1,2-diylbis(oxy))bis(4-fluoro-2,1-phenylene))bis(azanetriyl)tetraacetic acid]
Δω (ppm) between Ca2+-bound and free 5F-BAPTA (pH 5.6): 2.1 ppm
Δω (ppm) between Ca2+-bound and free 5F-BAPTA (pH 6.0): 4.0 ppm
Δω (ppm) between Ca2+-bound and free 5F-BAPTA (pH 6.4): 5.0 ppm
Δω (ppm) between Ca2+-bound and free 5F-BAPTA (pH 6.8): 5.6 ppm
Δω (ppm) between Ca2+-bound and free 5F-BAPTA (pH 7.0): 5.9 ppm
Δω (ppm) between Ca2+-bound and free 5F-BAPTA (pH 7.2): 6.2 ppm
Δω (ppm) between Ca2+-bound and free 5F-BAPTA (pH 7.6): 6.2 ppm
